Laboratory results published in US10155971B2, “Rapid antibiotic susceptibility testing system based on bacterial immobilization using gelling agent, antibiotic diffusion and tracking of single bacterial cells” (SNU R & DB FOUNDATION, priority 2012, dated 2018).
At least one structure is not confirmed: it was looked up by name or label, or the drawing left a doubt.

What was measured:
P. aeruginosa ATCC 27853 = details: CLSI range; cited from earlier work
E. coli ATCC 25922 = details: CLSI range; cited from earlier work
S. aureus ATCC 29213 = details: CLSI range; cited from earlier work
B. subtilis bacteria = assay: Live/dead cell assay on microplate with antibiotic-containing microparticles; format: cell-based; details: 75 ng kanamycin per microparticle, 120 min after loading
E. coli cells = assay: Antibiotic susceptibility testing with antibiotic-containing microparticles on microplate; format: cell-based

In the case of `CN(C)[C@@H]1C(O)=C(C(N)=O)C(=O)[C@@]2(O)C(O)=C3C(=O)c4c(O)cccc4[C@@](C)(O)[C@H]3C[C@@H]12` [Tetracycline], the “MIC, CLSI” value (P. aeruginosa ATCC 27853) is listed as 8 to 32 mg/L, the “MIC, CLSI” value (E. coli ATCC 25922) is listed as 0.5 to 2 mg/L and the “MIC, CLSI” value (S. aureus ATCC 29213) is listed as 0.12 to 1 mg/L.
In the case of `NC[C@H]1O[C@H](O[C@H]2[C@H](O)[C@@H](O[C@H]3O[C@H](CO)[C@@H](O)[C@H](N)[C@H]3O)[C@H](N)C[C@@H]2N)[C@H](O)[C@@H](O)[C@@H]1O` [kanamycin], the “live/dead cell assay (green/red spots)” value (B. subtilis bacteria) is reported as “killed”, the “bacterial growth around the microparticles” value (E. coli cells; large amount of the antibiotic, 75 ng per microparticle (exceeding the MIC)) is reported as “inhibited” and the “bacterial growth around the microparticles” value (E. coli cells; small amount of the antibiotic per microparticle (less than the MIC)) is reported as “growth of the bacteria was observed”.
